{"source": "PubChem BioAssay AID344", "about": "(DTP/NCI, 2004)", "tested_on": "mice, LPC-1 plasma cell tumor ip, median survival T/C", "assay": "NCI In Vivo Anticancer Drug Screen. Data for tumor model Lieberman Plasma Cell No. 1 (LPC-1) (intraperitoneal) in unknown mice", "conditions": "T/C endpoint: median survival time, higher T/C = longer survival", "protocol": "The antitumor activity of compounds was measured in mice bearing transplantable tumors. Survival or tumor size were measured and the results are expressed as the measurement made in the treated group (T) divided by the measurement made in the vehicle treated control group (C). The tumor model used in this assay is Lieberman Plasma Cell No. 1 (LPC-1) (intraperitoneal) in unknown mice", "note": "The list is a part of this screen's results and no random one: it gathers tests that were run many times, whatever their T/C, doses with no T/C, and many T/C values between a quarter and a half above the control. Other doses and runs of a compound stand elsewhere. T/C is the treated group as % of the vehicle group. Some doses have a count of surviving animals in place of a T/C: the source files T/C as zero there, which appears to mark a toxic dose or a test without result, not a measured value. Some survivor counts are full or nearly so, which does not show that the dose was tolerated: the source hardly ever lists a survival T/C far under the control, and the zero likely stands for such cases as well. Survivors were counted at the toxicity check, usually on the fifth day, unless a day is given; later deaths do not show. Schedule codes are those of the source, read here as Q, the interval in days (D) or hours (H), X, the number of doses. For survival time, the PubChem record calls one and a half times the control and up active, and a quarter to a half above the control has no call in these data; cut-offs in other NCI protocols can differ."}
{"smiles": "NC(Cc1c[nH]c2ccc(N(CCCl)CCCl)cc12)C(=O)O", "note": "(stereo not drawn)", "values": [{"measurement": "T/C", "setting": "dose: 1.08 mg/kg/injection, schedule: Q01DX028 (sc), vehicle: acid diluted with saline", "result": "128 % of control"}, {"measurement": "survivor count", "setting": "dose: 1.8 mg/kg/injection, schedule: Q01DX028 (sc), vehicle: methylcellulose (MC)", "result": "10 of 10"}, {"measurement": "survivor count", "setting": "dose: 3.0 mg/kg/injection, schedule: Q01DX028 (sc), vehicle: methylcellulose (MC)", "result": "10 of 10"}, {"measurement": "survivor count", "setting": "dose: 5.0 mg/kg/injection, schedule: Q01DX028 (sc), vehicle: methylcellulose (MC)", "result": "10 of 10"}]}
{"smiles": "O=C(O)c1[nH]c(=O)[nH]c(=O)c1F", "values": [{"measurement": "survivor count", "setting": "dose: 108.0 mg/kg/injection, schedule: Q01DX028 (sc), vehicle: saline", "result": "10 of 10"}]}
{"smiles": "COc1cc2ncccc2c2cccnc12", "values": [{"measurement": "survivor count", "setting": "dose: 100.0 mg/kg/injection, schedule: Q01DX011 (sc), vehicle: saline", "result": "3 of 8"}, {"measurement": "survivor count", "setting": "dose: 200.0 mg/kg/injection, schedule: Q01DX011 (sc), vehicle: saline", "result": "0 of 8"}, {"measurement": "survivor count", "setting": "dose: 400.0 mg/kg/injection, schedule: Q01DX011 (sc), vehicle: saline", "result": "0 of 8"}]}
